{"sequences": {"note": "Amino acid sequences for entries named in this document (tags omitted).", "UniProt Q00610": "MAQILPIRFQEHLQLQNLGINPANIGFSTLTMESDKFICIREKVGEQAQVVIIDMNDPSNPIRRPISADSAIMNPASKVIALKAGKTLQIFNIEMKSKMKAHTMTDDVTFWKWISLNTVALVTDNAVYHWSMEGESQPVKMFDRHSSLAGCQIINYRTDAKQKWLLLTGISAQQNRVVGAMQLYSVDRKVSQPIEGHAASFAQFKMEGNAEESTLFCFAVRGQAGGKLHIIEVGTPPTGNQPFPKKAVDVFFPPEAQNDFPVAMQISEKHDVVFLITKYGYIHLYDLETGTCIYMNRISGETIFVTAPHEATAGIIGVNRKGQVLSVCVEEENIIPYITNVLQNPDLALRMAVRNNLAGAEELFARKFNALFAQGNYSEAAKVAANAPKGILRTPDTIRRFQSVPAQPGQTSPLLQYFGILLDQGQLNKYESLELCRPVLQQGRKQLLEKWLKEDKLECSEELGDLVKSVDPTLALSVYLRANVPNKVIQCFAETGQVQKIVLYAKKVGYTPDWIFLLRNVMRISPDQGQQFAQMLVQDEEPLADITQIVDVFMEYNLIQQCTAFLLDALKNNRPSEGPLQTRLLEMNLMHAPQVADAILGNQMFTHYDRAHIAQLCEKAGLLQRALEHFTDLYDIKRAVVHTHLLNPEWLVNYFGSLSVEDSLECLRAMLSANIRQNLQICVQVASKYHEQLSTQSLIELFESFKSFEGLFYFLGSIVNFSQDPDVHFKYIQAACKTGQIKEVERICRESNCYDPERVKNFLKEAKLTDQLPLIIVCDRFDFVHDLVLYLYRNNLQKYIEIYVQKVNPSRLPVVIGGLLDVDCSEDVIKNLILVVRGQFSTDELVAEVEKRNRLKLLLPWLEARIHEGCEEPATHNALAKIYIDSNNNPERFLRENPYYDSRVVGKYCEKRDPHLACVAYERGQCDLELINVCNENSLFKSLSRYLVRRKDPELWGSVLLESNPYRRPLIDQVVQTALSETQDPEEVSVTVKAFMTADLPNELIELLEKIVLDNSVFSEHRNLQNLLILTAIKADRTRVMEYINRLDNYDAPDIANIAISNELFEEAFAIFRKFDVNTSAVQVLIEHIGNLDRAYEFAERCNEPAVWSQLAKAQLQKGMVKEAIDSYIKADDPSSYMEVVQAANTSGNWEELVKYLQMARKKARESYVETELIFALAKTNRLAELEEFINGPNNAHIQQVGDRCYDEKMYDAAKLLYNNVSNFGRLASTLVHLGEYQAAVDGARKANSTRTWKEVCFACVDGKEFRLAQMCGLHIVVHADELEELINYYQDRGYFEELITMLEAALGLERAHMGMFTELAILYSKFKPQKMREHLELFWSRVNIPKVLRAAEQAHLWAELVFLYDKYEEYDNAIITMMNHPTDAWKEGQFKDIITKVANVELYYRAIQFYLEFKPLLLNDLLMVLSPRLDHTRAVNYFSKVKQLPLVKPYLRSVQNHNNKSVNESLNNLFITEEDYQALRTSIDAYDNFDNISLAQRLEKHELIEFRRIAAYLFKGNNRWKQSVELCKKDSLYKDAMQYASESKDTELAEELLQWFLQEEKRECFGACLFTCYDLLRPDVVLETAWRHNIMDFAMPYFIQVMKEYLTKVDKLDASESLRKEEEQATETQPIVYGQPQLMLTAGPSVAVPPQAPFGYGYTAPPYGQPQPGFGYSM"}, "source": "paper PMC8038998", "molecules": {"B1": {"name": "Metastasis Associated in Colon Cancer 1 (MACC1), endogenous in SW620 cells (protein, UniProt Q6ZN28 1-852)", "chain": "MLITERKHFRSGRIAQSMSEANLIDMEAGKLSKSCNITECQDPDLLHNWPDAFTLRGNNASKVANPFWNQLSASNPFLDDITQLRNNRKRNNISILKEDPFLFCREIENGNSFDSSGDELDVHQLLRQTSSRNSGRSKSVSELLDILDDTAHAHQSIHNSDQILLHDLEWLKNDREAYKMAWLSQRQLARSCLDLNTISQSPGWAQTQLAEVTIACKVNHQGGSVQLPESDITVHVPQGHVAVGEFQEVSLRAFLDPPHMLNHDLSCTVSPLLEIMLGNLNTMEALLLEMKIGAEVRKDPFSQVMTEMVCLHSLGKEGPFKVLSNCYIYKDTIQVKLIDLSQVMYLVVAAQAKALPSPAATIWDYIHKTTSIGIYGPKYIHPSFTVVLTVCGHNYMPGQLTISDIKKGGKNISPVVFQLWGKQSFLLDKPQDLSISIFSCDPDFEVKTEGERKEIKQKQLEAGEVVHQQFLFSLVEHREMHLFDFCVQVEPPNGEPVAQFSITTPDPTPNLKRLSNLPGYLQKKEEIKSAPLSPKILVKYPTFQDKTLNFSNYGVTLKAVLRQSKIDYFLEYFKGDTIALLGEGKVKAIGQSKVKEWYVGVLRGKIGLVHCKNVKVISKEQVMFMSDSVFTTRNLLEQIVLPLKKLTYIYSVVLTLVSEKVYDWKVLADVLGYSHLSLEDFDQIQADKESEKVSYVIKKLKEDCHTERNTRKFLYELIVALLKMDCQELVARLIQEAAVLTSAVKLGKGWRELAEKLVRLTKQQMEAYEIPHRGNTGDVAVEMMWKPAYDFLYTWSAHYGNNYRDVLQDLQSALDRMKNPVTKHWRELTGVLILVNSLEVLRVTAFSTSEEV"}, "B2": {"name": "MACC1, ectopically overexpressed in SW480 cells (SW480/MACC1) (protein, UniProt Q6ZN28 1-852)", "chain": "B1 chain"}}, "key": {"[1]": {"biological_target": "T1, MACC1, ectopically overexpressed in SW480 cells (SW480/MACC1) (human) (UniProt Q6ZN28)", "T1 sequence": "B1 chain", "test": "co-IP; IP (pull-down) of MACC1 or its GFP-tagged variants from lysates of SW620, SW480/MACC1, SW480/MACC1-GFP and SW480 deletion-variant cells; CoIP lysing buffer (20 mM Tris–HCl pH 7.5, 150 mM NaCl, 0.1% NP40, 1 mM EDTA, 1% Triton X 100), antibody over night at 4 °C, protein-G Sepharose; Western blot"}, "[2]": {"biological_target": "T2, Metastasis Associated in Colon Cancer 1 (MACC1), endogenous in SW620 cells (human (endogenous in SW620)) (UniProt Q6ZN28)", "T2 sequence": "B1 chain", "test": "co-IP; IP (pull-down) of MACC1 or its GFP-tagged variants from lysates of SW620, SW480/MACC1, SW480/MACC1-GFP and SW480 deletion-variant cells; CoIP lysing buffer (20 mM Tris–HCl pH 7.5, 150 mM NaCl, 0.1% NP40, 1 mM EDTA, 1% Triton X 100), antibody over night at 4 °C, protein-G Sepharose; Western blot"}, "[3]": {"biological_target": "T3, full-length MACC1, C-terminal GFP fusion (MACC1-GFP) (human) (UniProt Q6ZN28)", "T3 sequence": "B1 chain", "test": "co-IP; IP (pull-down) of MACC1 or its GFP-tagged variants from lysates of SW620, SW480/MACC1, SW480/MACC1-GFP and SW480 deletion-variant cells; CoIP lysing buffer (20 mM Tris–HCl pH 7.5, 150 mM NaCl, 0.1% NP40, 1 mM EDTA, 1% Triton X 100), antibody over night at 4 °C, protein-G Sepharose; Western blot"}, "[4]": {"biological_target": "epidermal growth factor receptor (EGFR) (human (endogenous in SW620 and SW480)) (UniProt P00533)", "test": "co-IP; EGFR pulled down from SW620 and SW480/MACC1 lysates, MACC1 co-precipitated; CoIP lysing buffer, antibody over night at 4 °C, protein-G Sepharose; Western blot"}}, "note": "No constants are given. Whether binding was seen depends on the method and setting. Binding seen in cells or lysates may run through a third protein. Some results given as binding are weak or reduced against the parent protein; the word gives no strength. For some assays here: Where a sequence is shown, tags or fusion partners need not be part of it."}
{"molecule": "clathrin heavy chain 1 (CLTC) (from UniProt Q00610 1-1675)", "values": [{"measurement": "binding", "setting": "[1]", "result": "binds"}, {"measurement": "binding", "setting": "[2]", "result": "binds"}, {"measurement": "binding", "setting": "[3]", "result": "binds"}]}
{"molecule": "B1", "values": [{"measurement": "binding", "setting": "[4]", "result": "binds"}]}
{"molecule": "B2", "values": [{"measurement": "binding", "setting": "[4]", "result": "binds"}]}
